This is one part of the list. The main result of the screen is listed elsewhere. These columns were measured beside it and carry no call. The list favours compounds with an active or inconclusive main result. Words in brackets tell the shape of the fitted curve; partial curves, single points and poor fits give uncertain potencies.

Consider 57 compounds from PubChem BioAssay AID2685 (National Center for Advancing Translational Sciences (NCATS), 2010).

This experiment can be described thus: qHTS Assay for Lipid Storage Modulators in Drosophila S3 Cells.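 On cell number change: cells counted by Cell Tracker Red CMTPX staining in the red channel.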 The conditions noted are these: BODIPY lipid droplet fluorescence, 18-24 h; for cell number change: measured here: cell count max response, cells fed with added oleic acid. The gist of the method: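 Drosophila S3 cells got compounds at several concentrations plus oleic acid (400 uM solution). Laser-scanning cytometry with 488 nm excitation read lipid droplets at 500-530 nm and cells at 575-640 nm. Percent activity was relative to 20 uM Triacsin C.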
For orientation: In qHTS, concentration-response curves come from the screen itself.

[1] abbreviates: measured here: lipid fluorescence (Fed channel) AC50, cells fed with added oleic acid.
Setting [2] is: measured here: cell number channel AC50, cells fed with added oleic acid.

For the compound `COCCCn1c(C(=O)NCCC2=CCCCC2)cc2c(=O)n3cccc(C)c3nc21`, the cell number change turned out to be 6.87%. In addition, the AC50 (in general, the midpoint of the concentration-response curve, whichever way the signal moves) under setting [1] is 1.46 µM [falling, full curve]. Consider `CC(=O)c1ccc(C(=O)Nc2ccc(N3CCOCC3)cc2)cc1`, for which the cell number change is -14.5%. On to `Cn1nc(C(F)(F)F)c(C#N)c1N1CCN(c2ccccn2)CC1`, for which the cell number change worked out at 5.97%. Also, the AC50 under setting [2] was 4.11 µM [rising, single point].

Turning to `Cc1ccc(CC(=O)N2CCN(S(=O)(=O)c3ccccc3)CC2)cc1C`, the AC50 under setting [1] was 29.1 µM [rising, single point]. As to `CC(=O)Nc1cccc(NC(=O)CSc2ncc(-c3ccccc3)[nH]2)c1`, the cell number change stood at 27.5%. Also, the AC50 under setting [2] is 2.06 µM [rising, partial curve, poor fit]. Also, the AC50 under setting [1] was 6.51 µM [rising, partial curve].

`COc1ccc(CCNC(=O)COC(=O)Cn2cnc3c2c(=O)n(C)c(=O)n3C)cc1`: the cell number change came to 5.26%. Under setting [1], the AC50 is 29.1 µM [falling, single point]. With `Fc1ccc(CNC(=S)Nc2ccc(Cl)cc2Cl)cc1`, the cell number change is -10%. Besides, the AC50 under setting [1] is 29.1 µM [falling, single point]. With `Cc1cccc(N(CC(=O)NC2CCCC2)C(=O)CS(=O)CC(=O)Nc2ccc3c(c2)OCO3)c1` (configuration not stated), the cell number change was found to be 31.8%. Also, the AC50 under setting [2] is 4.11 µM [rising, partial curve, poor fit]. Also, the AC50 under setting [1] was 0.00461 µM [falling, full curve, poor fit]. Turning to `CCN(CC)S(=O)(=O)c1ccc(C(=O)Nc2nnc(CSC)o2)cc1`, the cell number change is -7.86%. Besides, the AC50 under setting [2] was 0.103 µM [falling, full curve, poor fit].

As to `CC1CC(C)(C)CC2(C1)NC(=S)N(c1ccccc1)N2` (configuration not stated), the cell number change was found to be 47.1%. In addition, the AC50 under setting [2] was 6.51 µM [rising, full curve]. Besides, the AC50 under setting [1] is 6.51 µM [rising, single point].

`O=C(c1ccccc1Cc1ccccc1)N1CCN(S(=O)(=O)c2ccccc2F)CC1`: the cell number change worked out at 29.6%. Under setting [1], the AC50 is 3.66 µM [falling, partial curve]. As to `NS(=O)(=O)c1cccc(NC(=S)NCc2ccc3c(c2)OCO3)c1`, the cell number change is 32.8%. For the same compound, the AC50 under setting [2] is 8.2 µM [rising, partial curve]. For the same compound, the AC50 under setting [1] is 7.31 µM [rising, partial curve]. Regarding `COc1ccccc1NC(=O)C1=C(C)NC(=O)NC1c1cc(C)cs1` (configuration not stated), the cell number change was -38.7%. The AC50 under setting [2] is 0.651 µM [falling, full curve]. Further, under setting [1], the AC50 is 2.31 µM [falling, partial curve, poor fit].

Regarding `Cc1cc(NC(=O)CSc2nnc(NCc3ccco3)s2)no1`, the cell number change is -7.65%. Besides, under setting [1], the AC50 is 29.1 µM [falling, single point].

As to `Cc1oc(-c2ccccc2F)nc1CS(=O)(=O)CC(=O)NCCCN1CCN(C)CC1`, the AC50 under setting [1] is 29.1 µM [falling, partial curve]. Regarding `CCOc1cc(C=O)ccc1OCCSc1ccc(C)cc1`, the cell number change is -0.932%. The AC50 under setting [1] was 6.51 µM [falling, single point]. Take `O=C(NCCCN1CCOCC1)c1ccc(-n2nc(C(F)(F)F)cc2-c2cccs2)cc1`: the cell number change was -3.02%. Under setting [1], the AC50 is 6.51 µM [rising, partial curve]. Regarding `CC(C)CNC(=O)COC(=O)c1cc(S(=O)(=O)N2CCCCC2)ccc1N1CCOCC1`, the cell number change is -28.6%. Further, the AC50 under setting [1] is 16.4 µM [falling, single point]. As for `COc1ccc(-c2cc(CNS(=O)(=O)c3cc(OC)ccc3OC)on2)cc1`, the cell number change was -21.5%. In addition, the AC50 under setting [1] was 7.08 µM [falling, partial curve]. On to `COc1cc2c(cc1OC)CN(C(=O)c1cc(S(=O)(=O)N3CCOCC3)ccc1Cl)CC2`, for which the cell number change is -15.5%. In addition, the AC50 under setting [1] was 0.00517 µM [rising, full curve, poor fit]. In the case of `Fc1ccc(Cn2nnc(-c3ccc(Cl)cc3)n2)cc1`, the cell number change was -26.4%. The AC50 under setting [1] was 29.1 µM [falling, single point]. Consider `CC1Cc2ccccc2N1S(=O)(=O)c1cccc(C(=O)NCCCO)c1` (configuration not stated), for which the cell number change is -17.5%. Also, under setting [1], the AC50 is 0.184 µM [rising, full curve, poor fit]. For the compound `Cc1oc(/N=C/c2ccc(F)cc2)c(C#N)c1C`, the cell number change amounted to 7.46%. The AC50 under setting [1] was 0.58 µM [rising, full curve]. Regarding `O=C(NCC1CCCO1)c1cccc(S(=O)(=O)N(Cc2ccccc2)c2ccccc2)c1` (configuration not stated), under setting [1], the AC50 was 6.51 µM [falling, single point]. For `Oc1c(C(Nc2cccc(C(F)(F)F)c2)c2cccnc2)ccc2cccnc12` (configuration not stated), the cell number change is -25.1%. The AC50 under setting [1] was 32.6 µM [falling, single point]. With `COc1cccc(N2CCN(CC(=O)C34CC5CC(CC(C5)C3)C4)CC2)c1`, the AC50 under setting [1] was 8.2 µM [falling, partial curve]. As to `CCOC(=O)c1ccccc1NC(=O)c1cccc(F)c1`, the cell number change amounted to 83.2%. In addition, under setting [2], the AC50 was 8.2 µM [rising, partial curve]. Moreover, the AC50 under setting [1] is 16.4 µM [rising, partial curve]. Take `COCCCN1C(=O)C(=O)/C(=C(/O)c2ccc(OC)cc2)C1c1ccc(O)c(OC)c1` (configuration not stated): the AC50 reads like this: under setting [2], 0.731 µM [falling, single point]; under setting [1], 0.92 µM [falling, single point]. Consider `CCC1CN(C(=O)NCc2cccc(OC)c2)c2ccccc2O1` (configuration not stated), for which the cell number change stood at 81.6%. Moreover, the AC50 under setting [2] is 20.6 µM [rising, single point]. The AC50 under setting [1] was 29.1 µM [rising, single point]. Take `COC(=O)C(=O)C/C(=N/Nc1ncnc2ccccc12)c1ccc(Cl)cc1`: the half-maximal activity concentration (AC50) under setting [1] was 0.164 µM [falling, full curve, poor fit]. As for `N#Cc1nc(Cc2cccc3ccccc23)oc1NCC1CCCO1` (configuration not stated), the cell number change was 38.4%. In addition, the AC50 under setting [2] is 23.1 µM [rising, single point]. As to `COc1ccc(-c2[nH]c(-c3ccccc3)nc2SCC(=O)NC2CCCC2)cc1`, the cell number change came to 1.05%. For the same compound, the AC50 under setting [1] is 1.64 µM [rising, partial curve]. Take `O=C(CSc1nnnn1-c1ccccc1)NCc1cccs1`: the cell number change came out at 42.2%. Under setting [2], the AC50 was 29.1 µM [rising, single point]. Moreover, the AC50 under setting [1] was 6.51 µM [rising, single point]. `O=c1oc2c3c4c(cc2c2c1CCC2)OCCN4CCC3`: the cell number change was determined as 90.3%. Also, under setting [2], the AC50 was 8.2 µM [rising, partial curve]. The AC50 under setting [1] was 9.2 µM [rising, partial curve]. Take `CCSc1nc(O)c(CC)c(=O)n1C(C)CC` (configuration not stated): the cell number change was 7.62%. For the compound `CC(C)Nc1nc(NC(C)C)nc(SCCOC(=O)Nc2ccc(Cl)cc2Cl)n1`, the cell number change came out at 45.4%. In addition, under setting [2], the AC50 was 2.91 µM [rising, partial curve]. In addition, under setting [1], the AC50 is 5.8 µM [rising, partial curve]. Regarding `COc1cccc(NC(=O)[C@H](NC(=O)[C@@H]2Cc3ccccc3CN2)c2ccccc2)c1`, the cell number change is -3.07%. For the compound `COC(=O)C(C)(C(=O)OC)c1ccc([N+](=O)[O-])cn1`, under setting [1], the AC50 was 4.61 µM [falling, full curve, poor fit]. Regarding `Cn1c(=Nc2ccc(N3CCOCC3)cc2)ccc2ccccc21`, the cell number change was 11.6%. Moreover, the concentration at half-maximal activity (AC50) under setting [1] is 3.66 µM [rising, full curve, poor fit].

Turning to `CC(C)(O)C#Cc1ccc(C(=O)N2CCCC(CNS(=O)(=O)c3cccs3)C2)o1` (configuration not stated), the AC50 under setting [1] is 29.1 µM [falling, single point]. For the compound `c1ccc(CN=C2NN=C(c3ccccc3)CS2)cc1`, the cell number change was -14.3%. Further, the AC50 under setting [1] was 2.31 µM [rising, partial curve].

Take `COc1c(CC=C(C)C)cc(C2CC(=O)c3c(O)cc(O)cc3O2)cc1CC=C(C)C` (configuration not stated): the cell number change was -72.7%. In addition, under setting [2], the AC50 is 20.6 µM [falling, single point]. Besides, the AC50 under setting [1] is 16.4 µM [falling, single point].

Regarding `CCOc1ccccc1C(=O)OCC(=O)Nc1ncc(C(F)(F)F)cc1Cl`, the cell number change was determined as 23.6%. Regarding `CCN1CC(CNC(=O)c2ccc3nc(Cc4cccc(Cl)c4)oc3c2)CC1=O` (configuration not stated), under setting [1], the AC50 was 6.51 µM [rising, single point].

`O=C(COc1ccccc1)Nc1nc(-c2ccncc2)cs1`: the cell number change was -6.82%. Under setting [1], the AC50 was 0.00517 µM [falling, full curve, poor fit]. On to `COc1ccc(OC)c(NC(=O)c2cc(S(=O)(=O)N3CCCC3)cn2C)c1`, for which the cell number change was found to be 15.6%. The AC50 under setting [2] was 0.00461 µM [rising, full curve, poor fit]. As to `CCOC(=O)c1c(C)[nH]c(C)c1C(=O)COC(=O)c1cccc(S(=O)(=O)NC)c1`, the cell number change was 0.606%. As to `O=C(NNC(=O)c1ccc(S(=O)(=O)N2CCCCC2)cc1)c1ccc(F)cc1`, the cell number change was found to be 31.3%. Also, under setting [2], the AC50 is 29.1 µM [rising, partial curve, poor fit]. Turning to `CC1CCN(S(=O)(=O)c2cn(CC(=O)Nc3cccc(C#N)c3)cn2)CC1`, the cell number change was found to be 10.2%. The AC50 under setting [1] is 29.1 µM [rising, single point]. `COc1cccc(NC(=O)c2ccccc2C(F)(F)F)c1`: the cell number change came to 7.4%. In addition, the AC50 under setting [1] was 0.00651 µM [falling, full curve, poor fit]. Take `COCc1[nH][nH]c(=O)c1C=Nc1ccc(Cl)cc1`: the cell number change was -5.07%. Besides, the AC50 under setting [1] was 0.291 µM [falling, full curve, poor fit].

As to `COC(=O)c1ccccc1S(=O)(=O)N1CCC(c2nc3ccccc3o2)CC1`, the cell number change worked out at 15.6%. Further, under setting [1], the AC50 was 7.31 µM [rising, partial curve]. `CCOc1ccc(NC(=O)CN(C)C(=O)c2ccc(C)c(S(=O)(=O)N3CCCCC3)c2)cc1OCC`: the cell number change was -10.2%.

With `CCCn1c(C)cc(C(=O)COC(=O)c2ccc(Cl)c(S(=O)(=O)N3CCCC3)c2)c1C`, the cell number change was -4.15%. Further, the AC50 under setting [1] is 0.259 µM [falling, full curve]. Turning to `CCCCNCc1cc(Br)c(OCC(=O)NCc2ccccc2)c(OC)c1`, the cell number change was determined as 38.1%. The AC50 under setting [2] is 2.31 µM [rising, partial curve]. As to `C[C@H](NS(=O)(=O)c1ccccc1F)C(=O)OCC(=O)N1CCc2ccccc21`, the cell number change worked out at 21.8%. In addition, under setting [1], the AC50 is 1.3 µM [falling, partial curve]. As for `COc1ccc2nc(Nc3nc(C)c(C(C)=O)s3)sc2c1`, the cell number change was -51.6%. Besides, the AC50 under setting [2] was 20.6 µM [falling, partial curve]. Under setting [1], the AC50 was 23.1 µM [falling, single point].
